Reference: US10105365B2, “Solid antiviral dosage forms” (AbbVie Inc., priority 2014, dated 2018)
Some entries share one result that the patent states for a list of compounds.

Assay: Human pharmacokinetic study, Example 5 Arm I (single dose, replicated crossover)
Type: in vivo
Conditions: Formulation C5-12 relative to the reference regimen, other than Compound 1 Cmax
Protocol: A Phase 1, non-fasting, open-label, two-arm, four-period, randomized, crossover study was conducted to compare and characterize the pharmacokinetics of (i) Triple Tablet when co-administered with Single Tablet, and (ii) Formulation C5-12 as discussed below. Part 1 was a single dose, two-treatment, randomized, four period, two sequence replicated crossover study with 88 subjects. Doses in the four periods were separated by at least 10 days. Part 2 was a multiple-dose, two-treatment, two period, randomized crossover study with 66 subjects. Dosing in each period was 14 days and doses in the two periods were separated by at least 10 days.
Adult male and female subjects in general good health were selected to participate in the study according to the selection criteria. Subjects meeting the selection criteria were randomly assigned to one of the sequences of Regimens A and B (four sequences for Arm I and two sequences for Arm II) as shown below in Table 5-A.
Study drug was administered as provided below in Table 5-B.
Each study regimen was taken orally with approximately 240 mL of water approximately 30 minutes after the start of standardized breakfast. Study regimens were administered orally in the morning on Study Day 1 of each period. Serial blood samples for pharmacokinetic analysis were collected 72 hours after dosing in each period.
Tables 5-C, 5-D, 5-E, and 5-F below report the Arm I pharmacokinetic data for Formulation C5-12 (separately reported for each of Compounds 1, 2, 3, and 4). Table 5-G presents the results of a relative bioavailability and 90% confidence interval analysis of the pharmacokinetic data for Formulation C5-12 relative to the reference regimen. The data presented in Tables 5-C through 5-G are preliminary data and are subject to database lock and final data verification by the statistician.

Structure (SMILES)	Difference of the other exposures to exposures from the reference regimen (comparable)
Cc1cnc(C(=O)N[C@H]2CCCCC/C=C\[C@@H]3C[C@@]3(C(=O)NS(=O)(=O)C3CC3)NC(=O)[C@@H]3C[C@@H](Oc4nc5ccccc5c5ccccc45)CN3C2=O)cn1 [Compound 1, (2R,6S,13aS,14aR,16aS,Z)-N-(cyclopropylsulfonyl)-6-(5-methylpyrazine-2-carboxamido)-5,16-dioxo-2-(phenanthridin-6-yloxy)-1,2,3,5,6,7,8,9,10,11,13a,14,14a,15,16,16a-hexadecahydrocyclopropa[e]pyrrolo[1,2-a][1,4]diazacyclopentadecine-14a-carboxamide]	less than 20%
COC(=O)N[C@H](C(=O)N1CCC[C@H]1C(=O)Nc1ccc([C@@H]2CC[C@@H](c3ccc(NC(=O)[C@@H]4CCCN4C(=O)[C@@H](NC(=O)OC)C(C)C)cc3)N2c2ccc(C(C)(C)C)cc2)cc1)C(C)C [Compound 2]	less than 20%
CC(C)c1nc(CN(C)C(=O)N[C@H](C(=O)N[C@@H](Cc2ccccc2)C[C@H](O)[C@H](Cc2ccccc2)NC(=O)OCc2cncs2)C(C)C)cs1 [Compound 3, 1,3-thiazol-5-ylmethyl N-[(2S,3S,5S)-3-hydroxy-5-[(2S)-3-methyl-2-{[methyl({[2-(propan-2-yl)-1,3-thiazol-4-yl]methyl})carbamoyl]-amino}butanamido]-1,6-diphenylhexan-2-yl]carbamate, reference compound]	less than 20%
COc1c(-c2ccc3cc(NS(C)(=O)=O)ccc3c2)cc(-n2ccc(=O)[nH]c2=O)cc1C(C)(C)C [Compound 4, N-(6-(3-tert-butyl-5-(2,4-dioxo-3,4-dihydropyrimidin-1(2H)-yl)-2-methoxyphenyl)naphthalen-2-yl)methanesulfonamide]	less than 20%
